Patent US10696631B2 (priority 2016, dated 2020)

Assay: MicroPET imaging and biodistribution in U87MG xenografts
Conditions: female, athymic nude, mouse, in vivo; for tissue uptake at 1 h: 1 h p.i.; for tissue uptake at 4 h: 4 h p.i.; for tissue uptake at 24 h: 24 h p.i.
Description: Female athymic nude mice (Harlan Laboratories) were housed in an animal facility under pathogen-free conditions. Tumor model was developed in 5 to 6 weeks old female athymic nude mice by injection of 5×10^6 cells into their right shoulders. The mice underwent small-animal PET studies when the tumor volume reached 300 mm^3 (14-20 days after inoculation), and received ^90Y radionuclide therapy when the tumor volume reached 150 mm^3 (10-14 days after inoculation).
Blood, muscle, bone, liver, kidneys, spleen, intestine, heart and tumor were collected and wet-weighed. […] Radioactivity was measured in a γ-counter. The results were expressed % ID/g.

[1] = tumor uptake with blocking, co-injection of excess c(RGDfk) monomer
[2] = tumor uptake, U87MG xenografts, PET

In the case of `Cc1cc(-c2ccc(NC(=O)[C@@H](CCCCNC(=O)CCN3C(=O)CC(SCC(=O)NCCCC[C@H]4NC(=O)[C@H](Cc5ccccc5)NC(=O)[C@H](CC(=O)O)NC(=O)CNC(=O)[C@H](CCCNC(=N)N)NC4=O)C3=O)NC(=O)CN3CCN(CC(=O)O)CCN(CC(=O)O)CC3)c(C)c2)ccc1/N=N/c1ccc2c(S(=O)(=O)O)cc(S(=O)(=O)O)c(N)c2c1O` (some centres unmarked) [64Cu-NMEB-RGD, metal not drawn], the tissue uptake at 1 h [1] is reported as 5.77 ± 0.08 %ID/g, the tissue uptake at 4 h [1] is reported as 11.1 ± 0.05 %ID/g and the tissue uptake at 1 h [2] is reported as 9.87 ± 1.4 %ID/g. It also gave a tissue uptake at 4 h [2] of 14.1 ± 1.62 %ID/g, a tissue uptake at 24 h [2] of 16.6 ± 1.99 %ID/g and a tissue uptake at 1 h (uptake in the blood) of 9.58 ± 0.84 %ID/g. The tissue uptake at 4 h (uptake in the blood) was 5.73 ± 0.67 %ID/g and the tissue uptake at 24 h (uptake in the blood) was 2.46 ± 0.25 %ID/g.
